Measurements: article PMC4014424
These are yes or no findings as the source states them, for the method shown. In cells and extracts the contact can be indirect. Some results given as binding are weak or reduced against the parent protein; the word gives no strength. Where a sequence is shown, tags or fusion partners need not be part of it.

Molecular target: T1, biotin-tagged TR4 (orphan nuclear receptor TR4, NR2C2) (UniProt P49117)
T1 sequence (chain, biotin on the biotin recognition sequence (by birA biotin ligase)): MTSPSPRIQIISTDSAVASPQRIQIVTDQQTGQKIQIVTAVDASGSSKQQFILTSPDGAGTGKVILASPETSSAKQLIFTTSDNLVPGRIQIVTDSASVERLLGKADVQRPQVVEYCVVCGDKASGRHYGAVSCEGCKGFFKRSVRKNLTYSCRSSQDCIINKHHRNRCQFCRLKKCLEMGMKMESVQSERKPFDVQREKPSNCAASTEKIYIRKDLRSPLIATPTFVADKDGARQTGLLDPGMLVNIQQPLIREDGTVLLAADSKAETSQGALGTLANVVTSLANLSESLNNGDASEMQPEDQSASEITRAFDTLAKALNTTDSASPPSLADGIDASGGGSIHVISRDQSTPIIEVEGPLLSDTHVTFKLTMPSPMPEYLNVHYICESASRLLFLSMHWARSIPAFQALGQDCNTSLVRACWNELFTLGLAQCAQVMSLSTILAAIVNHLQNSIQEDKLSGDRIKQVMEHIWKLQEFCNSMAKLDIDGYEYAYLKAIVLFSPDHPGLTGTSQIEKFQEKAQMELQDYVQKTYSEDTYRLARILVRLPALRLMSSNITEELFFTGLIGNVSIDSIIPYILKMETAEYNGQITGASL
Experiment: pull-down; streptavidin beads incubated overnight at 4°C with nuclear extracts of MEL cells expressing birA with or without (control) biotin-tagged TR4; washed with PBS plus 0.5% Tween20 and 1X Laemmli sample buffer; bound proteins immunoblotted

B1: TR2 (orphan nuclear receptor TR2, NR2C1) (protein, UniProt Q505F1 1-590)
chain: MATIEEIAHQIIDQQMGEIVTEQQTGQKIQIVTALDHSTQGKQFILANHEGSTPGKVFLTTPDAAGVNQLFFTSPDLSAPHLQLLTEKSPDQGPNKVFDLCVVCGDKASGRHYGAITCEGCKGFFKRSIRKNLVYSCRGSKDCVINKHHRNRCQYCRLQRCIAFGMKQDSVQCERKPIEVSREKSSNCAASTEKIYIRKDLRSPLAATPTFVTDSETARSAGLLDSGMFVNIHPSGIKTEPAMLMAPDKAESCQGDLSTLASVVTSLANLGKAKDLSHCGGDMPVVQSLRNGDTSFGAFHHDIQTNGDVSRAFDTLAKALTPGESSACQSPEEGMEGSPHLIAGEPSFVEKEGPLLSESHVAFRLTMPSPMPEYLNVHYIGESASRLLFLSMHWALSIPSFQALGQENSISLVKAYWNELFTLGLAQCWQVMNVATILATFVNCLHSSLQQDKMSPERRKSLMEHIFKLQEFCNSMVKLCIDGHEYAYLKAIVLFSPDHPGLENMELIERFQEKAYVEFQDYITRTYPDDTYRLSRLLLRLPALRLMNATITEELFFKGLIGNVRIDSVIPHILKMEPADYNSQIIGHSL
binding: binds
